Results deposited as PubChem BioAssay AID1224827 (NIAID, 2016)

- Aim: 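Identify regulators of the macrophage TNF-alpha response to bacterial LPS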 (follow-up of hits)
- System: RAW264.7 G9 mouse macrophage reporter clone
- Reagent: single siRNA against mouse genes, 100 nM siRNA
- Time to read-out: siRNA for 2 days, then LPS about 16 h
- Conditions: bacterial lipopolysaccharide (LPS), 10 ng/ml, cells fixed after overnight (about 16 h) stimulation
- Read-out: 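TNF promoter reporter red fluorescence in nuclei, background subtracted, normalised per plate and to non-targeting control siRNA, as z-scores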
- Direction: TNF reporter z-score, mean: higher = stronger Tnf promoter reporter signal
- Call rule: 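Active siRNA: replicate-mean z-score of 2 or more, or -2 or less; no calls for control wells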
This is an unselected part of about 3,800 reagents. Of all reagents, about 2,200 (57%) are marked active. 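Active means a strong reporter change in either direction; calls are per siRNA, not per gene; qiagen siRNAs gave weaker effects.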 A number with no mark means an inactive call. Not all columns of the deposit are shown. No sequences are given here.

TNF reporter z-score, mean, by gene knocked down and reagent
Or8g24: SID315488634 -3.41 (active); SID315488635 -3.43 (active); SID315488636 -4.58 (active); SID315488637 1.93; SID315488638 0.274; SID315488639 -0.374
Krt79: SID315488256 -3.49 (active); SID315488257 -4.05 (active); SID315488258 -4.61 (active); SID315488259 1.43; SID315488260 1.24; SID315488261 -2.68 (active)
Nr1d1: SID315488160 -1.46; SID315488161 -3.48 (active); SID315488162 -4.36 (active); SID315488163 -2.36 (active); SID315488164 -2.06 (active); SID315488165 -3.13 (active)
Csf1: SID315483999 0.896; SID315484000 -3.95 (active); SID315484001 -4.57 (active); SID315484002 0.614; SID315484003 0.335; SID315484004 0.661
Or4g17: SID315488622 -2.94 (active); SID315488623 -3.33 (active); SID315488624 -4.64 (active); SID315488625 0.734; SID315488626 -0.769; SID315488627 -1.46
Spi1: SID315484854 -0.244; SID315484855 -2.28 (active); SID315484856 -3.34 (active); SID315484857 -1.23; SID315484858 -2.38 (active); SID315484859 -2.95 (active)
Ica1l: SID315486606 1.76; SID315486607 -4.23 (active); SID315486608 -4.29 (active); SID315486609 2.53 (active); SID315486610 1.87; SID315486611 -0.0554
Dusp13b: SID315485397 1.06; SID315485398 -3.97 (active); SID315485399 -4.19 (active); SID315485400 3.43 (active); SID315485401 -2.04 (active); SID315485402 -2.18 (active)
Senp3: SID315487083 -1.23; SID315487084 -2.71 (active); SID315487085 -3.75 (active); SID315487086 1.7; SID315487087 0.9; SID315487088 -1.78
Ppm1a: SID315484671 0.309; SID315484672 -1.26; SID315484673 -4.99 (active); SID315484674 3.49 (active); SID315484675 0.988; SID315484676 -3.52 (active)

Reformatted: 4 of the entries above.
gene knocked down | PubChem SID | TNF reporter z-score, mean
Csf1 | SID315484004 | 0.661
Or4g17 | SID315488622 | -2.94 (active)
Or4g17 | SID315488623 | -3.33 (active)
Or4g17 | SID315488624 | -4.64 (active)
